According to patent US20240352088A1 (AICHI PREFECTURE, published 2024):
These are yes or no findings as the source states them, for the method shown. Some entries that bind do so weakly or less than the wild type. Blank lines part the entries; values can stand above or below the binder they belong to.

Sequences of proteins named here, by UniProt entry; tags and fusion partners are left off. Residues count along the entry.
UniProt P04141, residues 18-144: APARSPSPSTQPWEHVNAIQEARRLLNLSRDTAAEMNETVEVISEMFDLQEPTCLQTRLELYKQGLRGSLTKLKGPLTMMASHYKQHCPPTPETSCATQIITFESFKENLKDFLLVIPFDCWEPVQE
UniProt P05231, residues 30-212: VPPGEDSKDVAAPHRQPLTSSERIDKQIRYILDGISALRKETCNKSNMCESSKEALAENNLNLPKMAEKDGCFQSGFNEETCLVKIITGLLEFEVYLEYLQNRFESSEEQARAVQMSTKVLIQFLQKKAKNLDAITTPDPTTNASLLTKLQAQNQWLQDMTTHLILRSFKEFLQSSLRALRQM

Tests used:
[1] = biological target: GM-CSF (Granulocyte macrophage colony-stimulating factor) (UniProt P04141); test: co-culture with NALM6 and THP1 cells, ELISA of GM-CSF in the supernatant
[2] = biological target: GM-CSF (Granulocyte macrophage colony-stimulating factor) (UniProt P04141); test: depletion of added recombinant GM-CSF from the culture supernatant after 48 h, ELISA
IL-6 (interleukin-6) [3] = biological target: T1, IL-6 (interleukin-6) (human, UniProt P05231 30-212); test: IL-6 added to cells or to cell-free culture supernatant, ELISA of remaining IL-6
T1 construct: also called recombinant IL-6; human IL-6

IL-6 (interleukin-6) [4] = biological target: T1, IL-6 (interleukin-6); test: depletion of added IL-6 (3,000 pg/mL) from the culture supernatant after 48 h, ELISA

- binding [1]: binds
- binding [2]: binds
B1: chimeric cytokine receptors CSF2RA-ca7R and CSF2RB-ca7R, co-introduced (receptor)
chain 1: EKSDLRTVAPASSLNVRFDSRTMNLSWDCQENTTFSKCFLTDKKNRVVEPRLSNNECSCTFREICLHEGVTFEVHVNTSQRGFQQKLLYPNSGREGTAAQNFSCFIYNADLMNCTWARGPTAPRDVQYFLYIRNSKRRREIRCPYYIQDSGTHVGCHLDNLSGLTSRNYFLVNGTSREIGIQFFDSLLDTKKIERFNPPSNVTVRCNTTHCLVRWKQPRTYQKLSYLDFQYQLDVHRKNTQPGTENLLINVSGDLENRYNFPSSEPRAKHSVKIRAADVRILNWSSWSEAIEFGSDDGNNSSGEMDPILLPPCLTISILSFFSVALLVILACVLWKKRIKPIVWPSLPDHKKTLEHLCKKPRKNLNVSFNPESFLDCQIHRVDDIQARDEVEGFLQDTFPQQLEESEKQRLGGDVQSPNCPSEDVVITPESFGRDSSLTCLAGNVSACDAPILSSSRSLDCRESGKNGPHVYQDLLLSLGTTNSTLPPPFSLQSGILTLNPVAQGQPILTSLGSNQEEAYVTMSSFYQNQ
chain 2: WERSLAGAEETIPLQTLRCYNDYTSHITCRWADTQDAQRLVNVTLIRRVNEDLLEPVSCDLSDDMPWSACPHPRCVPRRCVIPCQSFVVTDVDYFSFQPDRPLGTRLTVTLTQHVQPPEPRDLQISTDQDHFLLTWSVALGSPQSHWLSPGDLEFEVVYKRLQDSWEDAAILLSNTSQATLGPEHLMPSSTYVARVRTRLAPGSRLSGRPSKWSPEVCWDSQPGDEAQPQNLECFFDGAAVLSCSWEVRKEVASSVSFGLFYKPSPDAGEEECSPVLREGLGSLHTRHHCQIPVPDPATHGQYIVSVQPRRAEKHIKSSVNIQMAPPSLNVTKDGDSYSLRWETMKMRYEHIDHTFEIQYRKDTATWKDSKTETLQNAHSMALPALEPSTRYWARVRVRTSRTGYNGIWSEWSEARSWDTESVLPMWNNSSGEMDPILLPPCLTISILSFFSVALLVILACVLWKKRIKPIVWPSLPDHKKTLEHLCKKPRKNLNVSFNPESFLDCQIHRVDDIQARDEVEGFLQDTFPQQLEESEKQRLGGDVQSPNCPSEDVVITPESFGRDSSLTCLAGNVSACDAPILSSSRSLDCRESGKNGPHVYQDLLLSLGTTNSTLPPPFSLQSGILTLNPVAQGQPILTSLGSNQEEAYVTMSSFYQNQ

- binding (IL-6 (interleukin-6) [3]): binds
- binding (IL-6 (interleukin-6) [4]): binds
B2: chimeric cytokine receptor IL6R-ca7R (receptor)
chain: LAPRRCPAQEVARGVLTSLPGDSVTLTCPGVEPEDNATVHWVLRKPAAGSHPSRWAGMGRRLLLRSVQLHDSGNYSCYRAGRPAGTVHLLVDVPPEEPQLSCFRKSPLSNVVCEWGPRSTPSLTTKAVLLVRKFQNSPAEDFQEPCQYSQESQKFSCQLAVPEGDSSFYIVSMCVASSVGSKFSKTQTFQGCGILQPDPPANITVTAVARNPRWLSVTWQDPHSWNSSFYRLRFELRYRAERSKTFTTWMVKDLQHHCVIHDAWSGLRHVVQLRAQEEFGQGEWSEWSPEAMGTPWTESRSPPAENEVSTPMQALTTNKDDDNILFRDSANATSLPVQDSSSVPLPNNSSGEMDPILLPPCLTISILSFFSVALLVILACVLWKKRIKPIVWPSLPDHKKTLEHLCKKPRKNLNVSFNPESFLDCQIHRVDDIQARDEVEGFLQDTFPQQLEESEKQRLGGDVQSPNCPSEDVVITPESFGRDSSLTCLAGNVSACDAPILSSSRSLDCRESGKNGPHVYQDLLLSLGTTNSTLPPPFSLQSGILTLNPVAQGQPILTSLGSNQEEAYVTMSSFYQNQ
